Source: patent US20170304457A1 (MIT, published 2017)

T1: importin β (UniProt Q06142 1-861)
T1 construct: Nuclear transport receptor used at 5 µM in the capillary transport assay; The His tag was not removed; TEV cleavage is told only for the two cargo proteins; also called scImpβ; scImp β; not shown: 6xHis tag (scImpβ-His6)
T1 sequence (looked up): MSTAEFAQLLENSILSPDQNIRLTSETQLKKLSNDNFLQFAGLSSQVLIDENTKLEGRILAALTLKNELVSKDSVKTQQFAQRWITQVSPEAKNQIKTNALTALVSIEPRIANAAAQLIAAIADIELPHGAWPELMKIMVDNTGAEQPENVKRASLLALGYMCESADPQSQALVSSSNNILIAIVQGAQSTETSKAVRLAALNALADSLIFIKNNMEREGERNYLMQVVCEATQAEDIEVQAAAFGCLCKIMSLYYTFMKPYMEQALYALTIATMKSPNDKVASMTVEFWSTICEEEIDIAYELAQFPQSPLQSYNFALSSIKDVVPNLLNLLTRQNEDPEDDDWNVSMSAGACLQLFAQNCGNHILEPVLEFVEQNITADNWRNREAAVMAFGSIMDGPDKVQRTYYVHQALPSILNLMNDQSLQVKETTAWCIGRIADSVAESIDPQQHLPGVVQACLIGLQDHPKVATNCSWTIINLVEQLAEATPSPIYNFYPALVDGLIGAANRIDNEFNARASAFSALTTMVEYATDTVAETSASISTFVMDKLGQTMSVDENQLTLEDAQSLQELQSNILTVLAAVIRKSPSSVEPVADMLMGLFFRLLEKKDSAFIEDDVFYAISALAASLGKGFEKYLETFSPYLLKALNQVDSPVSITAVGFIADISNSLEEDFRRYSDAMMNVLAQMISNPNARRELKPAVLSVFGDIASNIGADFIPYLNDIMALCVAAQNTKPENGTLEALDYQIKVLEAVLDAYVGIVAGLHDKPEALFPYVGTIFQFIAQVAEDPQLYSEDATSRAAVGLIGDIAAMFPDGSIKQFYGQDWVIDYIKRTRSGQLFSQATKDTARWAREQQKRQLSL


Each binder was assayed against T1, importin β (assay: capillary transport assay, discontinuous concentration profile at the gel/buffer interface, 20 w/v % hydrogel).
Experimental: 1.5 inch borosilicate capillaries with 0.9 mm inner diameters (Vitrocom 8290) were loaded by piercing pre-made hydrogels. 5 μM solutions of IBB-MBP-EGFP, MBP-mCherry, and/or importin β were injected into the capillary and sealed by a 1:1:1 mixture of vaseline, lanolin, and paraffin. Time lapses of cargo transport into the hydrogels were taken at 1 minute intervals for 1-3 hours on a Nikon Ti Eclipse inverted microscope using a Nikon CFI Plan UW 2× and Hamamatsu C11440-22CU camera. All fluorescence intensity profiles were obtained by averaging the fluorescence intensity within 100 μm slice width through the center of the gel and across the gel/buffer interface. The profiles were normalized by the bath concentration in the capillaries at the first time point. The interface between gel and buffer is assigned by a 20% change in the intensity compared to the bath fluorescence intensity as the zero point of the distance scale in each fluorescence intensity profile.

Row | binding result | Binder
1 | binds | P-cNsp1-P (other, Used as a 20 w/v % hydrogel crosslinked by pentameric association of the P domains; also called P-cNsp1-P-His6; P-cNspI-P) MDIGINSDPAPQMLRELQETNAALQDVRELLRQQVKEITFLKNTVMESDASGASDNKTTNTTPSFSFGAKSDENKAGATSKPAFSFGAKPEEKKDDNSSKPAFSFGAKSNEDKQDGTAKPAFSFGAKPAEKNNNETSKPAFSFGAKSDEKKDGDASKPAFSFGAKPDENKASATSKPAFSFGAKPEEKKDDNSSKPAFSFGAKSNEDKQDGTAKPAFSFGAKPAEKNNNETSKPAFSFGAKSDEKKDGDASKPAFSFGAKSDEKKDSDSSKPAFSFGTKSNEKKDSGSSKPAFSFGAKPDEKKNDEVSKPAFSFGAKANEKKESDESKSAFSFGSKPTGKEEGDGAKAAISFGAKPEEQKSSDTSKPAFTFGTSAPQMLRELQETNAALQDVRELLRQQVKEITFLKNTVMESDASGKLAAALEHHHHHH
2 | binds | P-1NLP-P (other, Used as a 20 w/v % hydrogel) MDIGINSDPAPQMLRELQETNAALQDVRELLRQQVKEITFLKNTVMESDASGASPAFSFGAKPDEKKDDDTSKPAFSFGAKPDEKKDDDTSKPAFSFGAKPDEKKDDDTSKPAFSFGAKPDEKKDDDTSKPAFSFGAKPDEKKDDDTSKPAFSFGAKPDEKKDDDTSKPAFSFGAKPDEKKDDDTSKPAFSFGAKPDEKKDDDTSKTSPAFSFGAKPDEKKDDDTSKPAFSFGAKPDEKKDDDTSKPAFSFGAKPDEKKDDDTSKPAFSFGAKPDEKKDDDTSKPAFSFGAKPDEKKDDDTSKPAFSFGAKPDEKKDDDTSKPAFSFGAKPDEKKDDDTSKPAFSFGAKPDEKKDDDTSKTSAPQMLRELQETNAALQDVRELLRQQVKEITFLKNTVMESDASGGKLAAALEHHHHHH
3 | binds | P-2NLP-P (other) MDIGINSDPAPQMLRELQETNAALQDVRELLRQQVKEITFLKNTVMESDASGASPAFSFGAKPDEKKDSDTSKPAFSFGAKPDEKKDSDTSKPAFSFGAKPDEKKDSDTSKPAFSFGAKPDEKKDSDTSKPAFSFGAKPDEKKDSDTSKPAFSFGAKPDEKKDSDTSKPAFSFGAKPDEKKDSDTSKPAFSFGAKPDEKKDSDTSKTSPAFSFGAKPDEKKDSDTSKPAFSFGAKPDEKKDSDTSKPAFSFGAKPDEKKDSDTSKPAFSFGAKPDEKKDSDTSKPAFSFGAKPDEKKDSDTSKPAFSFGAKPDEKKDSDTSKPAFSFGAKPDEKKDSDTSKPAFSFGAKPDEKKDSDTSKTSAPQMLRELQETNAALQDVRELLRQQVKEITFLKNTVMESDASGGKLAAALEHHHHHH
